Counter-ions that a name gives are not always drawn. Like-named read-outs stand apart in the source and are kept apart here. Hit rate of the full screen: of about 3,300 compounds, about 60 (2%) showed an effect of 50% or more. The list shows a part of the results. Numbered stars: 1 amine (or outer) side, 2 acyl side, 3 side chain; on linkers, the order of the positions; unused ones are H or OH. Square brackets hold non-standard residues; d marks the D form. Peptide text beside a SMILES is read from it. X1 = CC[C@@H](C)[C@@H](O[*:1])C(=O)[*:2]; NMeVal(β-OH) = CN[C@H](C(=O)O)C(C)(C)O; NMeF = CN[C@@H](Cc1ccccc1)C(=O)O; aIle = CC[C@@H](C)[C@H](N)C(=O)O; NMeV = CN[C@H](C(=O)O)C(C)C
Tested on: HCoV-OC43
Set-up: species or system RD; HTS, protection from HCoV-OC43 induced cell death, luminescent cell viability (CellCounting-Lite 2.0), inhibition rate

Structure (SMILES): O=C(O)CCCCCCCCCO [10-Hydroxydecanoic acid]
- OC43 Inhibition rate (24 h, 10 µM; inhibitor): -0.1%

Structure (SMILES): O=c1ccc2c(O)c3ccoc3cc2o1 [Bergaptol]
- OC43 Inhibition rate (24 h, 10 µM; inhibitor): -0.5%

Structure (SMILES): COC(=O)C1=CCCNC1 [Guvacoline (hydrochloride)]
- OC43 Inhibition rate (24 h, 10 µM; inhibitor): 8.7%

Structure (SMILES): CC(C)=CCC[C@H](C(=O)O)[C@H]1CC[C@]2(C)C3=C(CC[C@@]12C)[C@@]1(C)CCC(=O)C(C)(C)[C@H]1CC3 [β-Elemonic acid]
- OC43 Inhibition rate (24 h, 10 µM; inhibitor): -1.4%

Structure (SMILES): CC1(C)OC1COc1c2occc2cc2ccc(=O)oc12 (centres unmarked) [Oxyimperatorin]
- OC43 Inhibition rate (24 h, 10 µM; inhibitor): 2.8%

Structure (SMILES): CC[C@@H](C)[C@@H]1NC(=O)[C@@H]2CCCN2C(=O)[C@H](Cc2ccccc2)N(C)C(=O)[C@H](Cc2ccccc2)NC(=O)[C@H](C(C)C)N(C)C(=O)[C@@H]([C@H](C)CC)OC(=O)[C@H](C(C)(C)O)N(C)C(=O)[C@H](CC(C)C)NC(=O)[C@H](C(C)C)N(C)C1=O [Aureobasidin A] (cyclo(F[NMeF]P[aIle][NMeV]L[NMeVal(β-OH)][X1][NMeV]))
- OC43 Inhibition rate (24 h, 10 µM; inhibitor): 14.4%

Structure (SMILES): COc1cc(CCN)ccc1O [3-Methoxytyramine]
- OC43 Inhibition rate (24 h, 10 µM, inhibitor): -0.3%

Structure (SMILES): C/C=C1/C[C@@H](C)[C@@](C)(O)C(=O)OCC2=CCN3CC[C@@H](OC1=O)[C@@H]23 [Senecionine]
- OC43 Inhibition rate (24 h, 10 µM; inhibitor): -0.3%

Structure (SMILES): Nc1ncnc2c1ncn2[C@@H]1O[C@H](COP(N)(=O)O)[C@@H](O)[C@H]1O [Adenosine 5′-monophosphoramidate (sodium)]
- OC43 Inhibition rate (24 h, 10 µM; inhibitor): -0.3%

Structure (SMILES): NC(=O)NCCCC[C@H](N)C(=O)O [L-Homocitrulline]
- OC43 Inhibition rate (24 h, 10 µM; inhibitor): 0.4

Structure (SMILES): C[C@]12CC[C@H](OS(=O)(=O)O)CC1=CC[C@@H]1[C@@H]2CC[C@]2(C)C(=O)CC[C@@H]12 [Dehydroepiandrosterone sulfate (sodium salt)]
- OC43 Inhibition rate (24 h, 10 µM; inhibitor): 0.3%

Structure (SMILES): CC[C@@]1(O)C(=O)OCc2c1cc1n(c2=O)Cc2cc3c(OC)cccc3nc2-1 [9-Methoxycamptothecin]
- OC43 Inhibition rate (24 h, 10 µM; inhibitor): -2.3%

Structure (SMILES): O=C(O)c1cc2c(c3c1c([N+](=O)[O-])cc1ccccc13)OCO2 [Aristolochic acid B]
- OC43 Inhibition rate (24 h, 10 µM; inhibitor): -0.8%

Structure (SMILES): CO[C@H]1CC[C@@H](O[C@H]2C[C@H]([C@]3(C)CC[C@]4(C[C@H](O)[C@@H](C)[C@@H]([C@@H](C)/C=C(\C)C(=O)[C@H](C)C[C@H](C)C(=O)O)O4)O3)O[C@]3(O[C@@H]([C@H]4O[C@@](O)(CO)[C@H](C)C[C@@H]4C)C[C@@H]3C)[C@@H]2C)O[C@@H]1C [Nanchangmycin]
- OC43 Inhibition rate (24 h, 10 µM, inhibitor): -4.6%

Structure (SMILES): COC(=O)[C@]1(C)CC[C@]2(C)CC[C@]3(C)C4=CC=C5C(=CC(=O)C(O)=C5C)[C@]4(C)CC[C@@]3(C)[C@@H]2C1 [Pristimerin]
- OC43 Inhibition rate (24 h, 10 µM; inhibitor): -3.5%

Structure (SMILES): COC1=CC(=O)O[C@@H](CCc2ccccc2)C1 [Dihydrokavain]
- OC43 Inhibition rate (24 h, 10 µM; inhibitor): 2.2%

Structure (SMILES): C[C@@H]1CC[C@@]2(NC1)O[C@H]1C[C@H]3[C@@H]4CC=C5C[C@@H](O[C@@H]6O[C@H](CO)[C@@H](O[C@@H]7O[C@@H](C)[C@H](O)[C@@H](O)[C@H]7O)[C@H](O)[C@H]6O)CC[C@]5(C)[C@H]4CC[C@]3(C)[C@H]1[C@@H]2C [Khasianine]
- OC43 Inhibition rate (24 h, 10 µM; inhibitor): 67.5%

Structure (SMILES): COc1cc(CNC(=O)CCCCCC(C)C)ccc1O [Nordihydrocapsaicin]
- OC43 Inhibition rate (24 h, 10 µM; inhibitor): 0.2%

Structure (SMILES): O=C(O)[C@H]1O[C@@H](Oc2cc3oc(-c4ccc(O)cc4)cc(=O)c3c(O)c2O)[C@H](O)[C@@H](O)[C@@H]1O [Scutellarin]
- OC43 Inhibition rate (24 h, 10 µM; inhibitor): -2

Structure (SMILES): CCC1(O)C(=O)OCc2c1cc1n(c2=O)Cc2cc3cc(O)ccc3nc2-1 (racemic) [(±)-10-Hydroxycamptothecin]
- OC43 Inhibition rate (24 h, 10 µM; inhibitor): -1.7

Structure (SMILES): C[C@@H]1CC[C@@]2(OC1)O[C@H]1C[C@H]3[C@@H]4CC=C5C[C@@H](O[C@@H]6O[C@H](CO)[C@@H](O[C@@H]7O[C@@H](C)[C@H](O[C@@H]8O[C@@H](C)[C@H](O)[C@@H](O)[C@H]8O)[C@@H](O)[C@H]7O)[C@H](O)[C@H]6O[C@@H]6O[C@@H](C)[C@H](O)[C@@H](O)[C@H]6O)CC[C@]5(C)[C@H]4CC[C@]3(C)[C@H]1[C@@H]2C [Formosanin C]
- OC43 Inhibition rate (24 h, 10 µM; inhibitor): 5.5%

Structure (SMILES): C[C@]12CCC(=O)C=C1CC[C@@H]1[C@@H]2[C@@H](O)C[C@]2(C)C(=O)CC[C@@H]12 [11-Beta-hydroxyandrostenedione]
- OC43 Inhibition rate (24 h, 10 µM; inhibitor): 0.5%

Structure (SMILES): CC(=O)OC[C@]12[C@H](OC(C)=O)[C@H](OC(C)=O)[C@@H]3[C@@H](OC(C)=O)[C@@]14O[C@@]3(C)COC(=O)c1cccnc1CCC(C)C(=O)O[C@@H]([C@H](OC(=O)c1ccccc1)[C@@H]2OC(C)=O)[C@]4(C)O (some centres unmarked) [Wilforine]
- OC43 Inhibition rate (24 h, 10 µM; inhibitor): -0.7%

Structure (SMILES): C[C@]12CC[C@H]3[C@@H](CC[C@@H]4C[C@@H](O)CC[C@@]43CO)[C@@]1(O)CC[C@@H]2c1ccc(=O)oc1 [19-Hydroxybufalin]
- OC43 Inhibition rate (24 h, 10 µM; inhibitor): 2.7%

Structure (SMILES): O=c1cc(O)c2ccccc2o1 [4-Hydroxycoumarin]
- OC43 Inhibition rate (24 h, 10 µM; inhibitor): 0.9%

Structure (SMILES): NC(=O)c1cn([C@@H]2O[C@H](CO)[C@@H](O)[C@H]2O)c2ncnc(N)c12 [Sangivamycin]
- OC43 Inhibition rate (24 h, 10 µM; inhibitor): 3%

Structure (SMILES): CO[C@@H]1C[C@@H](C[C@H]2CC[C@H](C)[C@H]([C@@H](C)C(=O)O)O2)O[C@]2(O[C@](C)([C@H]3CC[C@@](C)([C@@H]4O[C@@H]([C@H]5O[C@@](O)(CO)[C@H](C)C[C@@H]5C)C[C@@H]4C)O3)C[C@H]2C)[C@@H]1C [Nigericin (sodium salt)]
- OC43 Inhibition rate (24 h, 10 µM; inhibitor): 8.7%

Structure (SMILES): COC1=CC(=O)O[C@@H](CCc2ccc3c(c2)OCO3)C1 [Dihydromethysticin]
- OC43 Inhibition rate (24 h, 10 µM; inhibitor): -0.3%

Structure (SMILES): C=C1C(=O)O[C@@H]2[C@H]3C(C)=CC[C@@]34O[C@@]4(C)CC[C@@H]12 [Arglabin]
- OC43 Inhibition rate (24 h, 10 µM; inhibitor): 16.5
